Publication PMC2718704
Results are given in words; binding and its absence hold for the method and conditions named. In cells and extracts the contact can be indirect. Some binding calls cover weakened binding; strength is not graded here.

Molecular target: NMDA subtype of glutamate receptors (NMDAr), NR2A-B subunits (rat (endogenous in hippocampus)) (UniProt Q00959+Q00960)
Experiment: co-IP; IP with the NMDAR2A&B (anti-NR2A-B) antibody from rat hippocampal extracts; bound fraction on western blots

## GRB2 (from UniProt P62994 1-217)
  binding: binds
